# Laboratory results taken from ChEMBL document CHEMBL3044836, “Synthesis, antimicrobial and cytotoxic activities of novel 4-trifluoromethyl-(1,2,3)-thiadiazolo-5-carboxylic acid hydrazide Schiffs bases” (Med Chem Res, 2013).
# Tested on: MDA-MB-231
# Assay: Cytotoxicity against Homo sapiens (human) MDA-MB-231 cells assessed as cell viability after 48 hr by MTT assay
# Assay type: functional, cell-based
# Settings: MDA-MB-231, 48 h
structure (smiles),measurement,value
COc1cccc2c1C(=O)c1c(O)c3c(c(O)c1C2=O)C[C@@](O)(C(=O)CO)C[C@@H]3O[C@H]1C[C@H](N)[C@H](O)[C@H](C)O1 [DOXORUBICIN],IC50,1.81 µg/mL
